Data reported in paper PMC5992127.
No constants are given. Whether binding was seen depends on the method and setting. In cells and extracts the contact can be indirect. Some entries that bind do so weakly or less than the wild type. Where a sequence is shown, tags or fusion partners need not be part of it.

Target: T1, GST-WNT5A (UniProt P41221)
T1 sequence: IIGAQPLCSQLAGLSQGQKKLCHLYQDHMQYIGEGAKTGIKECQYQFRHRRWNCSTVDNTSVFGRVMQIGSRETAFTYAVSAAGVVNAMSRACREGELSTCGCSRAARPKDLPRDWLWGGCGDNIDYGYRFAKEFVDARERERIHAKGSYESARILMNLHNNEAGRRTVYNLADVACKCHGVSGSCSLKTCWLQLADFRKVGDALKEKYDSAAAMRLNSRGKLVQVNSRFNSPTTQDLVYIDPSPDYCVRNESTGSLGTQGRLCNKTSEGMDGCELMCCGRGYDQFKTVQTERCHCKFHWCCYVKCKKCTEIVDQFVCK
Assay: pull-down; GST-WNT5A incubated with liver TIC lysate, GST pulldown, western blot with FZD6 antibody; only the target purified

binding: binds
B1: FZD6 (receptor, UniProt O60353 19-706)
chain: HSLFTCEPITVPRCMKMAYNMTFFPNLMGHYDQSIAAVEMEHFLPLANLECSPNIETFLCKAFVPTCIEQIHVVPPCRKLCEKVYSDCKKLIDTFGIRWPEELECDRLQYCDETVPVTFDPHTEFLGPQKKTEQVQRDIGFWCPRHLKTSGGQGYKFLGIDQCAPPCPNMYFKSDELEFAKSFIGTVSIFCLCATLFTFLTFLIDVRRFRYPERPIIYYSVCYSIVSLMYFIGFLLGDSTACNKADEKLELGDTVVLGSQNKACTVLFMLLYFFTMAGTVWWVILTITWFLAAGRKWSCEAIEQKAVWFHAVAWGTPGFLTVMLLAMNKVEGDNISGVCFVGLYDLDASRYFVLLPLCLCVFVGLSLLLAGIISLNHVRQVIQHDGRNQEKLKKFMIRIGVFSGLYLVPLVTLLGCYVYEQVNRITWEITWVSDHCRQYHIPCPYQAKAKARPELALFMIKYLMTLIVGISAVFWVGSKKTCTEWAGFFKRNRKRDPISESRRVLQESCEFFLKHNSKVKHKKKHYKPSSHKLKVISKSMGTSTGATANHGTSAVAITSHDYLGQETLTEIQTSPETSMREVKADGASTPRLREQDCGEPASPAASISRLSGEQVDGKGQAGSVSESARSEGRISPKSDITDTGLAQSNNLQVPSSSEPSSLKGSTSLLVHPVSGVRKEQGGGCHSDT
